Assay results: the supplement of paper PMC7666118
The other results are listed elsewhere or left out.

By UniProt entry, the sequences of proteins in these tests, tags left out. Where a name states a change or a piece, a line headed by the entry shows the natural chain unless it says otherwise.
UniProt Q8TC12: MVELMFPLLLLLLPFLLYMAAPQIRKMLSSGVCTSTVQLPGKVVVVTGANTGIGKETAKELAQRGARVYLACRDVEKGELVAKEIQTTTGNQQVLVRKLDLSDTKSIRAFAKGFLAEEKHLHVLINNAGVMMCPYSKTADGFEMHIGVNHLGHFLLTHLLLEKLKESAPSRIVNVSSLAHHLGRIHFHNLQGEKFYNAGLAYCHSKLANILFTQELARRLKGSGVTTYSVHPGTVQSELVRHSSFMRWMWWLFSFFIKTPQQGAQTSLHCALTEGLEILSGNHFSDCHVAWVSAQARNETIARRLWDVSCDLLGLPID
UniProt Q9P258, whole entry: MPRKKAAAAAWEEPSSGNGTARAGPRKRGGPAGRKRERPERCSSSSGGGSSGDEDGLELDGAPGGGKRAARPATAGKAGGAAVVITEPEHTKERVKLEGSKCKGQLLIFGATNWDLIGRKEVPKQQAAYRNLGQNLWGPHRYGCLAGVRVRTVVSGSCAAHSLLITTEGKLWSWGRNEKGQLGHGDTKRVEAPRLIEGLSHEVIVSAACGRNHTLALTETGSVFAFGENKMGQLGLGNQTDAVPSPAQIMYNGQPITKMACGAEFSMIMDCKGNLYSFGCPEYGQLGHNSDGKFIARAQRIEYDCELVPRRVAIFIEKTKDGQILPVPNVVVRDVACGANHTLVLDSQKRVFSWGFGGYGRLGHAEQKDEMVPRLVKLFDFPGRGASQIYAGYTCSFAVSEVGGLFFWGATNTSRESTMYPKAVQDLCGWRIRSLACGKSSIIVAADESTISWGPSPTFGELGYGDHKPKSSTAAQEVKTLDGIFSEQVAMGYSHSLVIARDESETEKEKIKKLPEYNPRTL
UniProt P20336: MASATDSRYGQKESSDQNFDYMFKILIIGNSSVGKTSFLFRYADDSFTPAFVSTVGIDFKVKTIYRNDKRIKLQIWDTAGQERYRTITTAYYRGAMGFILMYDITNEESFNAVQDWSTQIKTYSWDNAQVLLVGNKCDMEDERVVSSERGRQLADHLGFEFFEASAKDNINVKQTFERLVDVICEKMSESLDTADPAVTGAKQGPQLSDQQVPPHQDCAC
UniProt Q99496: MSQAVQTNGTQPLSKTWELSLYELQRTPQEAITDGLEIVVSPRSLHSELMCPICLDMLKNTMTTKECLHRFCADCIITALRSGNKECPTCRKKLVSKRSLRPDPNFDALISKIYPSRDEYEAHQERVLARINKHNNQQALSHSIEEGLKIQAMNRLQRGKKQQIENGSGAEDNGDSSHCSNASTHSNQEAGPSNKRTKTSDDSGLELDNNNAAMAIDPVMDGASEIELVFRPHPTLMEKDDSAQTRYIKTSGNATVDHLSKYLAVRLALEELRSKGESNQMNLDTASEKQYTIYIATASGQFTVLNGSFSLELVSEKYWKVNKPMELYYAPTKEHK
UniProt Q15286: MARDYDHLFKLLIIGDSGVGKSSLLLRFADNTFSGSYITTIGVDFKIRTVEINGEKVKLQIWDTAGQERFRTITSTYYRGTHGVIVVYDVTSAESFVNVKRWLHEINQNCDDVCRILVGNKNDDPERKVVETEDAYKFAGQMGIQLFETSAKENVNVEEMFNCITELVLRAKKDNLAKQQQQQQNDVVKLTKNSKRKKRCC
UniProt P46060: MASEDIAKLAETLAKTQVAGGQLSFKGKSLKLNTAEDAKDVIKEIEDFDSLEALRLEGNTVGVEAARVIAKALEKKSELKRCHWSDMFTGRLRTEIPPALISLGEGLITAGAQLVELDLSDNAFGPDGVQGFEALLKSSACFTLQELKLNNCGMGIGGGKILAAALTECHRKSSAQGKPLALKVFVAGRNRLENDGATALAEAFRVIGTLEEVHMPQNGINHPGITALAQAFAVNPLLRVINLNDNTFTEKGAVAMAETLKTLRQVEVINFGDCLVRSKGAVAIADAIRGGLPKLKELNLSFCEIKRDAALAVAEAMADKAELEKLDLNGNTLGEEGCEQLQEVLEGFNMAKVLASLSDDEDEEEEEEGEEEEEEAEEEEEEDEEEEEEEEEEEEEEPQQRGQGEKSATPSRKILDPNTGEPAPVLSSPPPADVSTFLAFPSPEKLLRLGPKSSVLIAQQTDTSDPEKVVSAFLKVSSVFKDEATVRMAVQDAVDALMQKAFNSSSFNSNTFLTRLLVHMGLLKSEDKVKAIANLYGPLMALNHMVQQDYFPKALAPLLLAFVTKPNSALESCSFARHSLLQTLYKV
UniProt Q96C36: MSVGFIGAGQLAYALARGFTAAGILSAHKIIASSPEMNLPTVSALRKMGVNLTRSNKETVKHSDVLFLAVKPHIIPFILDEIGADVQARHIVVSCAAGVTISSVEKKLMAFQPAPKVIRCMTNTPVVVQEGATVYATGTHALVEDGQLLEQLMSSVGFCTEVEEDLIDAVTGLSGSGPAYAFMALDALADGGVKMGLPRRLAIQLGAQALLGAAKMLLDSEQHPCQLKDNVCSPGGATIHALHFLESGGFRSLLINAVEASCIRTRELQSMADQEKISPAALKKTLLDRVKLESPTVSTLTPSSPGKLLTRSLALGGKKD
UniProt Q9NR77: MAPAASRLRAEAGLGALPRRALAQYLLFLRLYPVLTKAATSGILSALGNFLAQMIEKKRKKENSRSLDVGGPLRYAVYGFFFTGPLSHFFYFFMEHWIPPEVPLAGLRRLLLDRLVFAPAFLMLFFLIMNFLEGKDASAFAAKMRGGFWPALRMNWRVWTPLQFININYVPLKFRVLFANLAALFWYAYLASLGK
UniProt Q96D71: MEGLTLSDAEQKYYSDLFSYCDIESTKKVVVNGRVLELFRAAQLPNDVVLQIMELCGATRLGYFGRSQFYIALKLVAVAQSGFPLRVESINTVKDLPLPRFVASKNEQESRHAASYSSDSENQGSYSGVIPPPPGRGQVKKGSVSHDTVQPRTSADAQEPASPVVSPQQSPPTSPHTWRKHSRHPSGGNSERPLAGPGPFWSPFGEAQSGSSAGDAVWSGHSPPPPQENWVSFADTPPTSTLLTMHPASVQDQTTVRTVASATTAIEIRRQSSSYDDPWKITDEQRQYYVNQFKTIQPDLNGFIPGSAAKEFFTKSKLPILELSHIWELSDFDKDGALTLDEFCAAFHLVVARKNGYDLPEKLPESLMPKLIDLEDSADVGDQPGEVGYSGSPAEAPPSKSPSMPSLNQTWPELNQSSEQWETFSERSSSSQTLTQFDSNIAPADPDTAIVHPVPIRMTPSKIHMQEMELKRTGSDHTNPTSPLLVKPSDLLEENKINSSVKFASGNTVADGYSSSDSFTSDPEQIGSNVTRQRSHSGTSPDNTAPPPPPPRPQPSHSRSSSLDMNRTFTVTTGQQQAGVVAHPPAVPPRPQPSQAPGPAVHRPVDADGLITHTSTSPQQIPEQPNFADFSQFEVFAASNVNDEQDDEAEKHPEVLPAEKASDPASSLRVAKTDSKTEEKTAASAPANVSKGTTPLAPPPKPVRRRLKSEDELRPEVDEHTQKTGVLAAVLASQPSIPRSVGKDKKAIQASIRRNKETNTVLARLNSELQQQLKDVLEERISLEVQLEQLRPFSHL
UniProt O60216: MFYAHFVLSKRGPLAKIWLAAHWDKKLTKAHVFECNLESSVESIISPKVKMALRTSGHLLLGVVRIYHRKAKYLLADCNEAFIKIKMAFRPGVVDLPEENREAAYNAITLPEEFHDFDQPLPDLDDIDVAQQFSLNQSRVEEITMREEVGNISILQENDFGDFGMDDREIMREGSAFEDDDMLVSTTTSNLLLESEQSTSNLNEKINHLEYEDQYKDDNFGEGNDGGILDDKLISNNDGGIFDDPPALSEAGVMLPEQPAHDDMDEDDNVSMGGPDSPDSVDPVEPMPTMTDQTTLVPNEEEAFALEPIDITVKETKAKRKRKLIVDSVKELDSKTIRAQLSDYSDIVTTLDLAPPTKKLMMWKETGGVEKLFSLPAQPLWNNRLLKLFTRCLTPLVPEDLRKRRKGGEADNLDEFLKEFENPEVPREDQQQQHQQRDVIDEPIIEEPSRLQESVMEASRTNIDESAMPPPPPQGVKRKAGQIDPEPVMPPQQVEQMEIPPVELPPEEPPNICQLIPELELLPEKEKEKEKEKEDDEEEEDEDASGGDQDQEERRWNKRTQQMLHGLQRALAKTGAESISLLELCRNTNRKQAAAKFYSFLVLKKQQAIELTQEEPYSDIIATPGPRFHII
UniProt O15258: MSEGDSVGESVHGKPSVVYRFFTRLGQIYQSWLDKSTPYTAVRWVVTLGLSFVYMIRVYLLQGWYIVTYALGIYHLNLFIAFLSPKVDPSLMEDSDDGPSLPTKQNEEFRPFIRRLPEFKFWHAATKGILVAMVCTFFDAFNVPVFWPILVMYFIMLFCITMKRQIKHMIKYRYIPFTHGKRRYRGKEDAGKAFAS
UniProt Q96AX2: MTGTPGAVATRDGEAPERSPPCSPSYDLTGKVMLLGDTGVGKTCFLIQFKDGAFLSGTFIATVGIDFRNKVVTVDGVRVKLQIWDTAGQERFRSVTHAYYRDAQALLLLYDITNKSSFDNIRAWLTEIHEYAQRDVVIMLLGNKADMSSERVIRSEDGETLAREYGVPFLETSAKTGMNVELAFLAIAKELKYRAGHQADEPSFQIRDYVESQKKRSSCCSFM
UniProt Q9P2N5: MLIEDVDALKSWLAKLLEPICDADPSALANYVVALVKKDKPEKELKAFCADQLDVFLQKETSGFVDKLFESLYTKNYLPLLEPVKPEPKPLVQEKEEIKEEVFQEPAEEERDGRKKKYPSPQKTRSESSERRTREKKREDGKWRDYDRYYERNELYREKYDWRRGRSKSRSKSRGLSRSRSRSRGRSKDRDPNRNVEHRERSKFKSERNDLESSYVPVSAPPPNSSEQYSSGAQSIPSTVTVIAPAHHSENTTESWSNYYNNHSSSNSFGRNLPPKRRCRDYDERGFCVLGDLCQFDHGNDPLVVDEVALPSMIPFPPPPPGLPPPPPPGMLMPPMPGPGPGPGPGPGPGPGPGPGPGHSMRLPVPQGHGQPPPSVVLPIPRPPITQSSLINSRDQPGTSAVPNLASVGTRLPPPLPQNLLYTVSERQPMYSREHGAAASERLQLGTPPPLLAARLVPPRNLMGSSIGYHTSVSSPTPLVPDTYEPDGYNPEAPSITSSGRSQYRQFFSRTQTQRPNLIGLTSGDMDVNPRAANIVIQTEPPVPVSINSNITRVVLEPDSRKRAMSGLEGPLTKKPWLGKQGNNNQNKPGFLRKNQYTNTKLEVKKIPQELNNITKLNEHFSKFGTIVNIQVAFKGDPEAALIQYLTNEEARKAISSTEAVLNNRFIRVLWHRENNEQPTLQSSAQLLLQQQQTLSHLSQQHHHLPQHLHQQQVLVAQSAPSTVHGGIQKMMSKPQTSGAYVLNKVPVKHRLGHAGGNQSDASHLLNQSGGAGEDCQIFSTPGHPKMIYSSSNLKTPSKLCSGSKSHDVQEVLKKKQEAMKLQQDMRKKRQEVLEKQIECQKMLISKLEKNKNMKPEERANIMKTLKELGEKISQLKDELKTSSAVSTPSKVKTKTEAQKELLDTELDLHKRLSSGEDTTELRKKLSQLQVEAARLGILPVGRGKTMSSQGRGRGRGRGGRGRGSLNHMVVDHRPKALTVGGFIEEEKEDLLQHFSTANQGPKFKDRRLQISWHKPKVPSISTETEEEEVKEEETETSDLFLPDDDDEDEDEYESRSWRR
UniProt P54725: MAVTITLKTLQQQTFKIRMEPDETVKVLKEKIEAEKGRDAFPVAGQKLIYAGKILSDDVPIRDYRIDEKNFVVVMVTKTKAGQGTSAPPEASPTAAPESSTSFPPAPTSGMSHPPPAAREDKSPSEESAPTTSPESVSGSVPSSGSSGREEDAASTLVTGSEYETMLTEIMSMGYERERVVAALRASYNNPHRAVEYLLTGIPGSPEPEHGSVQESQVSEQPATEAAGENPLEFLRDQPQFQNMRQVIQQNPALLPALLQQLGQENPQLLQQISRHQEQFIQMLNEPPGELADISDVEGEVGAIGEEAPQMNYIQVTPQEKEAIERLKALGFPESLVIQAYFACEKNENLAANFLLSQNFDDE
UniProt Q96QR8: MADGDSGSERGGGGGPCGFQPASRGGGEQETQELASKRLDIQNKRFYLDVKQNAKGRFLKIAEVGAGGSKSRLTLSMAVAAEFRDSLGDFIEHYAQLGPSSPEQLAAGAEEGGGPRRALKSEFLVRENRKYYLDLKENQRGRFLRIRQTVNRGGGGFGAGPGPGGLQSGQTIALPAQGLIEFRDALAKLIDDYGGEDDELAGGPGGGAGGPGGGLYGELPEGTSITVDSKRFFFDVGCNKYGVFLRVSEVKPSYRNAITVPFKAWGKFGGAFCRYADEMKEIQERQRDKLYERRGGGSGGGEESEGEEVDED
UniProt Q14257: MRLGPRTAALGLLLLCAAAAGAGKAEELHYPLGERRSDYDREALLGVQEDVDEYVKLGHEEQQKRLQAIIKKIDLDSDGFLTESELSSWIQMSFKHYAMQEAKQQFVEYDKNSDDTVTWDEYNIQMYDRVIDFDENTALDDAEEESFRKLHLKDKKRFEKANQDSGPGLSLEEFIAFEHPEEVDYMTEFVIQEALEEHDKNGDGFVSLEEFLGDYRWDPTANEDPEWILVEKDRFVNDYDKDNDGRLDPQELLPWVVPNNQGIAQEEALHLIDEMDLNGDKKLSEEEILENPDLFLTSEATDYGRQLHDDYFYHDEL

compound: COc1ccc(Cn2ccc3cc(C)c(C(=O)NO)cc32)cc1; experiment: dose-dependent thermal stabilisation call (2D-TPP, DLPTP, 10% FDR) (binary (1 = stabilised)); higher = stabilised by the compound; conditions: system: HL-60 intact cells; concentration range 0.04-10 µM
Description: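 2D thermal proteome profiling in intact HL-60 cells treated with BRD-3811 (0, 0.04, 0.29, 2, 10 uM) for 90 min at 37 C, then heated 3 min at one of 12 temperatures (42-63.9 C). Soluble protein was quantified by TMT10 MS. The value is the DLPTP call of the paper: dose-dependent thermal stabilisation over all temperatures at 10% FDR (F-test of a dose-response against a flat model); one experiment, one call per tested protein.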

Target | dose-dependent thermal stabilisation call
RDH11 (UniProt Q8TC12) | inactive: 0
PVR (UniProt P15151) | inactive: 0
QDPR (UniProt P09417) | inactive: 0
RAVER2 (UniProt Q9HCJ3) | inactive: 0
RCC2 (UniProt Q9P258) | inactive: 0
RAB3A (UniProt P20336) | inactive: 0
RNF2 (UniProt Q99496) | inactive: 0
RANBP2 (UniProt P49792) | inactive: 0
RIN3 (UniProt Q8TB24) | inactive: 0
RAP1GDS1 (UniProt P52306) | inactive: 0
RAB35 (UniProt Q15286) | inactive: 0
RLTPR (UniProt Q6F5E8) | inactive: 0
PWP2 (UniProt Q15269) | inactive: 0
RDH13 (UniProt Q8NBN7) | inactive: 0
RFT1 (UniProt Q96AA3) | inactive: 0
RELL1 (UniProt Q8IUW5) | inactive: 0
RAD9A (UniProt Q99638) | inactive: 0
RANBP6 (UniProt O60518) | inactive: 0
RANGAP1 (UniProt P46060) | inactive: 0
RBM34 (UniProt P42696) | inactive: 0

Single entries from the entries so far.
Entry for RAP1GDS1 (UniProt P52306) under dose-dependent thermal stabilisation call: inactive: 0
Entry for RNF2 (UniProt Q99496) under dose-dependent thermal stabilisation call: inactive: 0
Entry for RBM34 (UniProt P42696) under dose-dependent thermal stabilisation call: inactive: 0

Remaining list, next part:

Target | dose-dependent thermal stabilisation call
PYCR2 (UniProt Q96C36) | inactive: 0
QPRT (UniProt Q15274) | inactive: 0
PTPRE (UniProt P23469) | inactive: 0
RNASEH2A (UniProt O75792) | inactive: 0
PXMP2 (UniProt Q9NR77) | inactive: 0
RICTOR (UniProt Q6R327) | inactive: 0
REPS1 (UniProt Q96D71) | inactive: 0
RAD21 (UniProt O60216) | inactive: 0
RER1 (UniProt O15258) | inactive: 0
RAB37 (UniProt Q96AX2) | inactive: 0
RBM27 (UniProt Q9P2N5) | inactive: 0
RFC4 (UniProt P35249) | inactive: 0
RAD23A (UniProt P54725) | inactive: 0
PURB (UniProt Q96QR8) | inactive: 0
RAB2A (UniProt P61019) | inactive: 0
RASGRP2 (UniProt Q7LDG7) | inactive: 0
RBM8A (UniProt Q9Y5S9) | inactive: 0
RFK (UniProt Q969G6) | inactive: 0
RANGRF (UniProt Q9HD47) | inactive: 0
RCN2 (UniProt Q14257) | inactive: 0
